Primary screen of a compound library

The filed quantity is “Percent Effect” (%). How 0% and 100% were set is not recorded. Most values in the screen are low, and negative values occur. The compounds are a random part of those screened.

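Assay of Toxoplasma gondii numbers, read through their beta-galactosidase reporter with a colour substrate. Tested at 50 µM. Higher reads as fewer parasites (inferred from which compounds were picked for retests). About 18,000 compounds were tested under these conditions; 0.94% (about 170) showed 50% or more at least once.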

| SMILES | Percent Effect |
|---|---|
| `CC(CC(=O)NCc1ccccc1)n1cccn1` (configuration not stated) | 20.13 |
| `CC(C)NC(=O)CNC(=O)c1cc2cc(F)ccc2[nH]1` | -3.387 |
| `CN(C)c1cc(Cn2cnc3sccc3c2=O)ccn1` | -4.601 |
| `CSc1ncc(CN)n1C` | 14.39 |
| `CCOCC(O)CNc1nc2ccccc2c(=O)[nH]1` (configuration not stated) | -6.489 |
| `CCS(=O)(=O)CCN(C)C(=O)Nc1cc(F)cc(Cl)c1` | 0.02752 |
| `O=C(Cn1cnnn1)N(CC1CCOC1)C1CC1` (configuration not stated) | 1.468 |
| `CCC(CC)NC(=O)Cn1cc(Br)ccc1=O` | -0.9109 |
| `Nc1cnnn1-c1ccccc1` | -10.83 |
| `CCC(O)CN1CCN(c2ccccc2C#N)C(=O)C1` (configuration not stated) | -14.91 |
| `CN(C)c1ccc(CNC(=O)C2CCCO2)cc1` (configuration not stated) | -15.93 |
| `CC(C)CC(C)(N)CN` (configuration not stated) | -12.46 |
| `CS(=O)(=O)CCN1CCCC(CO)(CC2CC2)C1` (configuration not stated) | -0.2037 |
| `CCO[C@H]1CN(CCn2cc(Cl)cn2)C[C@@H]1O` | -0.9872 |
| `Cc1cccc2nc(CN)n(C)c12` | 12.9 |
| `CC(=O)Cn1cnc2sc(C)c(C)c2c1=O` | -11.17 |
| `CC(C)c1noc(CCC(=O)N2CCCC2)n1` | -6.874 |
| `CC(=O)Nc1ccccc1CN` | -1.882 |
| `CN(CCOc1ccc(Cl)cc1)CCC(N)=O` | -5.352 |
| `CC(=O)N1CCN(Cc2cc(=O)n(C)c(=O)n2C)CC1` | -0.253 |
| `CC(C)c1nccc(C(=O)N2C[C@H](C3CC3)[C@@H](N)C2)n1` | -6.789 |
| `CC(=O)c1ccc(C(=O)NC(C)c2n[nH]c(=O)[nH]2)s1` (configuration not stated) | 25.64 |
| `Cc1cc(C(=O)N2CC(N3CCOCC3)C2)ccc1O` | -1.052 |
| `O=C(NCc1ncc[nH]1)Nc1cccc(F)c1` | -9.299 |
| `CCOC(C)(C)CNC(=O)NCc1ccncc1` | -4.251 |
| `O=C(NCc1cn2ccccc2n1)C1CCC1` | 14.5 |
| `CC(C)(C)OCCO[C@H]1C[C@@H](O)C1` | 3.78 |
| `CCN(CC(N)=O)C(=O)CC(C)(O)c1ccccc1` (configuration not stated) | -13.79 |
| `COCC(=O)N1CCN(CC2CCCCC2)CC1` | -0.2165 |
| `c1cn2nc(N3CCCC3)ccc2n1` | -4.077 |
| `CC(=O)N1CCC(CCOc2cccnc2)CC1` | -10.48 |
| `CN(CC(N)=O)CC(=O)NCc1cc(Br)cs1` | -15.92 |
| `CCC(NC(=O)C1CC1)(C(N)=O)C(C)C` (configuration not stated) | 9.791 |
| `CCOc1ccc2[nH]c(C(C)O)nc2c1` (configuration not stated) | -12.97 |
| `CS(=O)(=O)CCSC1CCCCNC1=O` (configuration not stated) | 8.034 |
| `COc1ccc(C(=O)Nc2nonc2NC(C)=O)cc1` | -2.035 |
| `CNC(=O)[C@H](C)NS(=O)(=O)c1ccccc1F` | -21.71 |
| `CCN1CC(NC(=O)CCc2cccnc2)CC1=O` (configuration not stated) | -2.214 |
| `NCCS(=O)(=O)c1ccc(Cl)cc1` | 9.172 |
| `OC1(c2ccccc2)CCCNCC1` (configuration not stated) | 3.493 |
| `NC(=O)C1(NCc2ccc(Br)c3cccnc23)CC1` | 0.3269 |
| `COCCNC(=O)CNC(=O)c1cc(C)cc(C)c1Br` | -16.46 |
| `O=C(CC1CCCN1)c1cccs1` (configuration not stated) | 7.728 |
| `CCO[C@H]1COC[C@@H]1NC(=O)c1cnc(O)cn1` | -1.892 |
| `CCN(Cc1ccccc1NCc1cc[nH]n1)C(C)=O` | 6.802 |
| `CN(Cc1cc[nH]n1)C(=O)C1COc2ccccc2C1` (configuration not stated) | -5.5 |
| `CNCCCNC(=O)CCc1ccsc1` | -2.007 |
| `COc1ccc2c(c1)OCCN(C(=O)C(C)OC)C2` (configuration not stated) | 7.535 |
| `CC1(C)CCC(CCN)O1` (configuration not stated) | 31.37 |
| `NS(=O)(=O)CC1CCN(C(=O)Nc2ccccc2)CC1` | 13.92 |
| `COCCOC1CCN(Cc2cncn2C)CC1` | -5.26 |
| `COCCCn1cc(NC(=O)C(C)(C)C)cn1` | 4.262 |
| `CC(C)NC(=O)c1cn(Cc2ccc(Cl)cc2)nn1` | -15.91 |
| `CC1CCCN1CCN` (configuration not stated) | 27.69 |
| `CC1CCC(N(C)C(=O)Cn2cccn2)CC1` (configuration not stated) | -1.84 |
| `Cc1[nH]c(C(C)(C)N)nc(=O)c1C` | -2.644 |
| `Cc1cccc(NCCNC(=O)c2ccccc2)n1` | 22.72 |
| `CC(N)C1(N2CCOCC2)CCCC1` (configuration not stated) | -11.55 |
| `NC(=O)C1CCN(c2ncnc3ccsc23)CC1` | 0.8525 |
| `N#Cc1ccnc(N2CCOCC2)c1` | -11.62 |
| `NC(CO)c1c(Cl)cccc1Cl` (configuration not stated) | -14.79 |
| `O=c1ccc(F)cn1Cc1ncn(-c2ccccc2)n1` | -4.551 |
| `CCNCc1c(C)nn(C)c1C` | 4.277 |
| `CCO[C@H]1CN(C(=O)Cc2cccc(Cl)c2)C[C@@H]1O` | -2.718 |
| `COc1ccccc1OCC(=O)NC(C)CCN(C)C` (configuration not stated) | 10.34 |
| `CCS(=O)(=O)NC1(CN)CCCC1` | -19.49 |
| `CN(CCCNS(C)(=O)=O)CC1CCCCO1` (configuration not stated) | 6.849 |
| `CC(C)(C)CC(=O)NCCS(=O)(=O)N1CCSCC1` | 1.834 |
| `CNCCC1CCCO1` (configuration not stated) | -0.5942 |
| `CC1(CCNC(=O)c2ccon2)OCCO1` | 9.96 |
| `CN(C)CCNCc1ccc2c(c1)n(C)c(=O)n2C` | -3.382 |
| `O=C1CSc2ccc(C(=O)Nc3nccs3)cc2N1` | -16.36 |
| `CC(C)NC(=O)C(C)Oc1ccc(S(N)(=O)=O)cc1` (configuration not stated) | 14.98 |
| `COCc1noc(CC(C)NC(=O)C2CCCC2)n1` (configuration not stated) | 21.79 |
| `CCOCCCNC(=O)CC#N` | -8.027 |
| `CCOc1ncccc1C(=O)NCC1CCCN1CC` (configuration not stated) | -0.459 |
| `COc1ccccc1C(=O)NCC(=O)NCC(F)(F)F` | -9.444 |
| `COCC1(C(=O)N2CCCC(CC(N)=O)C2)CCC1` (configuration not stated) | -5.284 |
| `CNCCCNC(=O)c1ccc(C)c(C)c1` | -0.8587 |
| `COc1cc(C(C)N)ccc1OCc1ccncc1` (configuration not stated) | 4.39 |
| `NCC(=O)Cc1ccc(Br)cc1` | 37 |
| `CC(=O)c1ccc(C(=O)NC(C)c2nc(C)c[nH]2)s1` (configuration not stated) | 5.759 |
| `CSc1ccc(OCCn2cnnc2[S+](C)[O-])cc1` (configuration not stated) | 11.03 |
| `CCc1nn(C)c(CC)c1S(=O)(=O)N1CCCNCC1` | -1.975 |
| `COCC1CCN(Cc2ccc(NC(C)=O)cc2)C1` (configuration not stated) | -11.02 |
| `CCCOC1CCCN(C[C@H](O)CC)C1` (some centres not stated) | 18.91 |
| `CCC(C)Nc1ccc(N2CCN(C)CC2)nc1` (configuration not stated) | 6.679 |
| `CC(C)(C)NC(=O)CN1CCN(CCC#N)CC1` | -3.73 |
| `Cc1cc(C(=O)N2CCCN(C)CC2)c(C)s1` | -8.198 |
| `c1ccc(NCCCN2CCOCC2)cc1` | 14.47 |
| `NCC(c1cccs1)N1CCCC1` (configuration not stated) | -8.119 |
| `c1cc(N2CCCNCC2)ccn1` | 14.6 |
| `CC1(C)CC(NC(=O)CC#N)CC(C)(C)N1` | 0.541 |
| `CC(O)C(=O)Nc1ccc(S(N)(=O)=O)cc1` (configuration not stated) | -3.18 |

11 of the entries, repeated:

- CN(Cc1cc[nH]n1)C(=O)C1COc2ccccc2C1 (configuration not stated) | -5.5%
- CC(=O)N1CCN(Cc2cc(=O)n(C)c(=O)n2C)CC1 | -0.253%
- CC(C)NC(=O)CNC(=O)c1cc2cc(F)ccc2[nH]1 | -3.387%
- Cc1cc(C(=O)N2CC(N3CCOCC3)C2)ccc1O | -1.052%
- CC(=O)N1CCC(CCOc2cccnc2)CC1 | -10.48%
- c1cc(N2CCCNCC2)ccn1 | 14.6%
- Cc1cccc2nc(CN)n(C)c12 | 12.9%
- O=C1CSc2ccc(C(=O)Nc3nccs3)cc2N1 | -16.36%
- O=C(NCc1cn2ccccc2n1)C1CCC1 | 14.5%
- COCCNC(=O)CNC(=O)c1cc(C)cc(C)c1Br | -16.46%
- COCC(=O)N1CCN(CC2CCCCC2)CC1 | -0.2165%

Data taken from ChEMBL document CHEMBL3988442, “University of Dundee, Small-Polar-MMV Screening Library” (2021).